Values from PubChem BioAssay AID1259405 (NCATS, 2018)

Test: 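Silenced genes that increase secreted GFP made by CHO cells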 (primary screen)
Cells: Chinese hamster CHO-K1 ovary cells with stable secreted eGFP expression
Knock-down reagent: single siRNA against mouse genes, 0.8 pmol siRNA per well (2 µl of 400 nM stock)
Time to read-out: 3 days
Measured: 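Per-well intracellular GFP measured by laser scanning cytometry, plus viability from ATP luminescence, each relative to plate median of non-targeting control wells, in %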
Scale: GFP, % of control: higher = more GFP per well, higher productivity; viability (ATP), % of control: higher = more viable cells (more ATP)
Rule for the call: 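a knock-down is called active if GFP reaches 120% or more of non-targeting control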
In all, the deposit lists about 50,000 reagents; this is an unselected part. In the full data, about 4,000 (8%) got an active call. 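Mouse siRNA library applied to hamster cells; one well for each siRNA.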 Reagents against one gene are numbered here. Reagent sequences are not shown.

{"gene symbol": "Fkbp5", "siRNA no.": 1, "GFP, % of control": 49.8, "viability (ATP), % of control": 67.4, "outcome": "inactive"}
{"gene symbol": "Fkbp5", "siRNA no.": 2, "GFP, % of control": 79, "viability (ATP), % of control": 98.3, "outcome": "inactive"}
{"gene symbol": "Fkbp5", "siRNA no.": 3, "GFP, % of control": 118, "viability (ATP), % of control": 113, "outcome": "inactive"}
{"gene symbol": "Or6c5c", "siRNA no.": 1, "GFP, % of control": 65.7, "viability (ATP), % of control": 62.6, "outcome": "inactive"}
{"gene symbol": "Or6c5c", "siRNA no.": 2, "GFP, % of control": 79.4, "viability (ATP), % of control": 81.7, "outcome": "inactive"}
{"gene symbol": "Or6c5c", "siRNA no.": 3, "GFP, % of control": 118, "viability (ATP), % of control": 90.5, "outcome": "inactive"}
{"gene symbol": "Slc2a13", "siRNA no.": 1, "GFP, % of control": 69.3, "viability (ATP), % of control": 76.7, "outcome": "inactive"}
{"gene symbol": "Slc2a13", "siRNA no.": 2, "GFP, % of control": 80.5, "viability (ATP), % of control": 55.3, "outcome": "inactive"}
{"gene symbol": "Slc2a13", "siRNA no.": 3, "GFP, % of control": 76.7, "viability (ATP), % of control": 62.6, "outcome": "inactive"}
{"gene symbol": "Or7g16", "siRNA no.": 1, "GFP, % of control": 67.5, "viability (ATP), % of control": 73.7, "outcome": "inactive"}
{"gene symbol": "Or7g16", "siRNA no.": 2, "GFP, % of control": 88.2, "viability (ATP), % of control": 71.4, "outcome": "inactive"}
{"gene symbol": "Or7g16", "siRNA no.": 3, "GFP, % of control": 108, "viability (ATP), % of control": 83.8, "outcome": "inactive"}

A few values from the list.
Slc2a13 #1, viability (ATP), % of control = 76.7
Fkbp5 #3, outcome = inactive
Under “outcome”, Or7g16 #1 is entered as inactive

The results go on.
{"gene symbol": "Lpgat1", "siRNA no.": 1, "GFP, % of control": 134, "viability (ATP), % of control": 81.1, "outcome": "active"}
{"gene symbol": "Lpgat1", "siRNA no.": 2, "GFP, % of control": 103, "viability (ATP), % of control": 85.5, "outcome": "inactive"}
{"gene symbol": "Lpgat1", "siRNA no.": 3, "GFP, % of control": 40.7, "viability (ATP), % of control": 64.6, "outcome": "inactive"}
{"gene symbol": "Galntl6", "siRNA no.": 1, "GFP, % of control": 95.5, "viability (ATP), % of control": 80.8, "outcome": "inactive"}
{"gene symbol": "Galntl6", "siRNA no.": 2, "GFP, % of control": 62.5, "viability (ATP), % of control": 68.6, "outcome": "inactive"}
{"gene symbol": "Galntl6", "siRNA no.": 3, "GFP, % of control": 72.8, "viability (ATP), % of control": 73.1, "outcome": "inactive"}
{"gene symbol": "Tmem163", "siRNA no.": 1, "GFP, % of control": 98.4, "viability (ATP), % of control": 50.1, "outcome": "inactive"}
{"gene symbol": "Tmem163", "siRNA no.": 2, "GFP, % of control": 41.3, "viability (ATP), % of control": 44.7, "outcome": "inactive"}
{"gene symbol": "Tmem163", "siRNA no.": 3, "GFP, % of control": 78.6, "viability (ATP), % of control": 87.3, "outcome": "inactive"}
{"gene symbol": "Or2d4", "siRNA no.": 1, "GFP, % of control": 102, "viability (ATP), % of control": 70.9, "outcome": "inactive"}
{"gene symbol": "Or2d4", "siRNA no.": 2, "GFP, % of control": 112, "viability (ATP), % of control": 89, "outcome": "inactive"}
{"gene symbol": "Or2d4", "siRNA no.": 3, "GFP, % of control": 77.9, "viability (ATP), % of control": 89.1, "outcome": "inactive"}
{"gene symbol": "Wnt9b", "siRNA no.": 1, "GFP, % of control": 42.6, "viability (ATP), % of control": 41.7, "outcome": "inactive"}
{"gene symbol": "Wnt9b", "siRNA no.": 2, "GFP, % of control": 82.4, "viability (ATP), % of control": 111, "outcome": "inactive"}
{"gene symbol": "Wnt9b", "siRNA no.": 3, "GFP, % of control": 123, "viability (ATP), % of control": 82.5, "outcome": "active"}
